Experimental data as given in PMC6925144, “A prospective compound screening contest identified broader inhibitors for Sirtuin 1” (Scientific Reports, 2019).
The full ranking holds about 3,200 compounds; the median of “TSA(with NAD+) / Primary screening (TSA) / delta Tm (K)” is about -0.04, and the highest 2% start at about 0.37. This is one part of the list.

Sequences of proteins named here, by UniProt entry; tags and fusion partners are left off. Residues count along the entry.
UniProt Q96EB6, 2-747 limits assumed: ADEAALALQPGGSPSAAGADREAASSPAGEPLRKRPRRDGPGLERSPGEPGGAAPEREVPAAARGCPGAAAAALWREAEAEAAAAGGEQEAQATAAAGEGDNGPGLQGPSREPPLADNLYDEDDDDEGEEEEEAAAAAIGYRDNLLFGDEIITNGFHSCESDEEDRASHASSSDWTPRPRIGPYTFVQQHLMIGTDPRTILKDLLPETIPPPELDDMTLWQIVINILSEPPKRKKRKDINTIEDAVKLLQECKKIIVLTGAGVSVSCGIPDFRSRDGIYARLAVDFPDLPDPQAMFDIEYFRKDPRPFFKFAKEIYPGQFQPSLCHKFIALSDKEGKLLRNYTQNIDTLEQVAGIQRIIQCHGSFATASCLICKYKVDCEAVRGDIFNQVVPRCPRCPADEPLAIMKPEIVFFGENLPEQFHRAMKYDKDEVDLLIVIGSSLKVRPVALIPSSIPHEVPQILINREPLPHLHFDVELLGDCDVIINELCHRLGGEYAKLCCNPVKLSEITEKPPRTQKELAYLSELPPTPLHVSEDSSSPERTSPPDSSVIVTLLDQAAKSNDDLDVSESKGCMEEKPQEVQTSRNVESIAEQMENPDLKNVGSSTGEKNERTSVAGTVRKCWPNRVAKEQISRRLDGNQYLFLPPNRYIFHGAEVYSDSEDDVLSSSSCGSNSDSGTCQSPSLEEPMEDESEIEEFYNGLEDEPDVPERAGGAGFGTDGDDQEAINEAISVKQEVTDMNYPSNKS

What follows are compounds tested against NAD-dependent deacetylase Sirtuin 1 (human, UniProt Q96EB6) (assay: primary screen, delta tm). Conditions: 10 µM.
Parameters: single well (n = 1, as 'the same TSA')

Row | SMILES | TSA(with NAD+) / Primary screening (TSA) / delta Tm (K)
1 | COc1ccc(C(=O)C2=C(O)C(=O)N(CCCN3CCOCC3)C2c2ccccn2)cc1 (stereo not shown) | -0.04
2 | O=C1NC(=S)NC(=O)C1=NNc1ccc(SC(F)F)cc1 | 0.06
3 | CCCc1nnc(SC(C)C(=O)Nc2ccc(C(N)=O)cc2)n1CC(=O)O (stereo not shown) | -0.23
4 | COc1ccc(NC(=O)CCc2ccc(F)c(F)c2)cc1OCc1cn2ccccc2n1 | -0.18
5 | NCC(O)C1CC1 (stereo not shown) | -0.24
6 | O=C1CCCCCN1Cc1nnc(Sc2ncnc3cc(-c4ccc(Cl)cc4)sc23)o1 | 0.18
7 | Clc1ccc(-c2nnn[nH]2)cc1 | 0.02
8 | O=C(O)c1ccc2[nH]ccc2c1 | -0.01
9 | CCSCCC(=O)O | -0.06
10 | O=C1NC2(CCc3ccccc3C2)C(=O)N1Cc1nc2ccccc2s1 (stereo not shown) | -0.11
11 | CCCC(C)NC(=O)COC(=O)C1CCC(=O)N(c2ccc(OC)cc2)C1c1ccc(OC)cc1 (stereo not shown) | -0.19
12 | Cc1ccc(OCc2nc3ccccc3n2Cc2ccccc2C)cc1 | -0.14
13 | CCOC(=O)c1sc(NC(=O)c2cnc3ccccc3n2)nc1-c1ccccc1 | 0.09
14 | Cn1c(SC2CCOC2=O)nc2ccccc21 (stereo not shown) | -0.14
15 | CC1CN(C(C(=O)Nc2cnc3ccccc3c2)C(C)C)CC(C)O1 (stereo not shown) | -0.01
16 | O=C(Cc1csc(-c2ccccc2)n1)Nc1ccc(N2CCN(Cc3ccccc3)CC2)cc1 | 0.09
17 | CCOc1cc(C(=O)Nc2ncc(Cc3cccc(C)c3)s2)ccc1OCC(=O)N1CCCCC1 | -0.02
18 | c1ccc2c(c1)oc1c(N3CCC4(CCOC4)C3)ncnc12 (stereo not shown) | -0.03
19 | COC(=O)CC1c2cc(OC)c(OC)cc2CCN1Cc1ccc(C(N)=O)cc1 (stereo not shown) | -0.08
20 | O=C(c1cc2cc(F)ccc2[nH]1)N1CCN(c2ncnc3sccc23)CC1 | -0.12
21 | Cc1onc(-c2ccccc2)c1C(=O)Nc1cccc2c1CCCC2 | -0.05

A few values from the list.
Value of COc1ccc(NC(=O)CCc2ccc(F)c(F)c2)cc1OCc1cn2ccccc2n1 under TSA(with NAD+) / Primary screening (TSA) / delta Tm (K): -0.18
Value of Cc1onc(-c2ccccc2)c1C(=O)Nc1cccc2c1CCCC2 under TSA(with NAD+) / Primary screening (TSA) / delta Tm (K): -0.05
Value of O=C(c1cc2cc(F)ccc2[nH]1)N1CCN(c2ncnc3sccc23)CC1 under TSA(with NAD+) / Primary screening (TSA) / delta Tm (K): -0.12

More records follow.

Row | SMILES | TSA(with NAD+) / Primary screening (TSA) / delta Tm (K)
22 | CN(C(=O)CSc1ccccc1C(=O)OCc1cccc(S(=O)(=O)N(C)C)c1)C1CCCCC1 | -0.13
23 | CCCOc1ccc(C(=O)C2=C(O)C(=O)N(CCCN3CCOCC3)C2c2cccs2)cc1 (stereo not shown) | -0.06
24 | O=C(NCCc1ccc(Cl)s1)NC1CC1 | -0.03
25 | CC(C)Cc1cc(C(=O)n2ncc(C#N)c2N)[nH]n1 | -0.18
26 | NC(=O)c1ccc(COC(=O)c2ccc3c(c2)OCC(=O)N3)cc1 | -0.03
27 | CC(=O)c1cc(C(=O)NCCc2ccc(-c3csc(C)n3)s2)n(C)c1 | -0.01
28 | CCCc1nnc(S)[nH]1 | -0.18
29 | CC1=NNC(=O)/C1=C\c1cn(-c2ccccc2)nc1-c1cc2cc(Br)ccc2oc1=O | -0.13
30 | O=C(Nc1ccc(NC(=O)N2CCCCCC2)cc1)c1nc(Cl)ccc1Cl | 0.01
31 | O=C(CN1C(=O)c2ccccc2C1=O)c1ccc2c(c1)-c1ccccc1C2 | -0.16
32 | C/C(NCc1ccccc1)=C1/Sc2ccccc2C1=O | 0.16
33 | COC(=O)c1ccc(C2NC(=O)NC3=C2C(=O)N(CC(C)O)C3)cc1 (stereo not shown) | -0.05
34 | COC(=O)c1ccc(C2C(C(=O)c3sc(C)nc3C)=C(O)C(=O)N2CCCN2CCOCC2)cc1 (stereo not shown) | -0.09
35 | O=C(Nc1ccc(Oc2ncccn2)cc1)c1ccc(S(=O)(=O)Nc2ccc(F)cc2)cc1 | 0.06
36 | NC(=O)c1ccc(F)c(NC(=O)C2CCCc3cccnc32)c1 (stereo not shown) | 0.05
37 | O=C(COC(=O)CN1C(=O)c2ccccc2S1(=O)=O)Nc1ccccc1SCc1ccccc1 | 0.06
38 | Cc1nc2c(C(N)=O)ncn2c(C)c1CCC(=O)NC(c1cccs1)C(C)C (stereo not shown) | -0.04
39 | Cc1cc(C#N)ccc1S(=O)(=O)NCCC(C)N (stereo not shown) | -0.03
40 | O=C(Cc1ccccc1OC(F)F)Nc1cccc(-c2nnn[nH]2)c1 | -0.01
41 | Cc1nc(N2CCC(C(N)=O)CC2)c2c3c(sc2n1)CCCCC3 | 0.66
42 | O=C(CN1c2cccc3cccc(c23)S1(=O)=O)c1c[nH]c2ccccc12 | 0.22

Row | SMILES | TSA(with NAD+) / Primary screening (TSA) / delta Tm (K)
43 | CC(CN)CN | -0.18
44 | CC1CN(C(=O)c2ccc(NC(=O)C3=COCCC3)cc2)CC(C)O1 (stereo not shown) | -0.28
45 | COc1ccc(/C=N/c2ccc(C)cc2)cc1 | 0.01
46 | NC(=O)NCCCCC(=O)Nc1cccc(C(F)(F)F)c1 | 0.08
47 | CC(C(=O)Nc1ncccn1)N1CCC(c2c[nH]c3ccc(C(N)=O)cc23)CC1 (stereo not shown) | -0.12
48 | O=C(O)c1cnc2c(c1)c(=O)[nH]c(=O)n2Cc1ccccc1 | -0.13
49 | c1ccc(-c2cc(-c3nc4c5ccccc5ncn4n3)[nH]n2)cc1 | -0.04
50 | Cc1c(NN=C2C(=O)NC(=S)NC2=O)c(=O)n(-c2ccccc2)n1C | 0.11
51 | OC1CCN(CCOCCOc2ccccc2)CC1 | -0.01
52 | O=C(CN1C(=O)NC2(CCCC2)C1=O)NCC12CC3CC(CC(C3)C1)C2 | -0.13
53 | O=C(c1ccc(-n2cnnn2)cc1Cl)N1CCCN2CCCC2C1 (stereo not shown) | -0.32
54 | Cc1nc(-c2cccnc2)nc(NCCOc2cccnc2)c1C | -0.02
55 | COc1ccccc1-c1c(C)oc2cc(O)ccc2c1=O | -0.09
56 | NC(=O)c1ccc(N2CCCC2)c(NC(=O)CCc2ccc3c(c2)OCO3)c1 | -0.04
57 | Cc1ccc(S(=O)(=O)N2CCCCC2)cc1NC(=O)COC(=O)c1ccccc1SCC(=O)N1CCCC1 | -0.01
58 | O=C(Nc1ccc(NC(=O)c2ccccc2-n2cccn2)cc1)NC1CC1 | -0.01
59 | CC#CCN | -0.03
60 | Cc1nc2cc(NC(=O)C3Cc4ccccc4O3)ccc2o1 (stereo not shown) | -0.12
61 | CCn1c(C(=O)Nc2ccc(CCO)cc2)cc2ccccc21 | -0.03
